In the experiment the target is GFP-IQGAP1 (UniProt P46940). Kind of experiment: co-IP; lysate of HEK293 cells expressing GFP-IQGAP1, with or without 60 min on fibronectin-coated dishes; IP lysis buffer 20 mM Tris-HCl pH 8.0, 137 mM NaCl, 1% NP40, 2 mM EDTA; precipitated with mouse anti-GFP antibody and protein A/G agarose beads at 4 °C; HECTD1 detected by western blot. A general note: In western blotting, separated proteins are transferred to a membrane and probed.

Sequences of proteins named here, by UniProt entry; tags and fusion partners are left off.
UniProt P46940: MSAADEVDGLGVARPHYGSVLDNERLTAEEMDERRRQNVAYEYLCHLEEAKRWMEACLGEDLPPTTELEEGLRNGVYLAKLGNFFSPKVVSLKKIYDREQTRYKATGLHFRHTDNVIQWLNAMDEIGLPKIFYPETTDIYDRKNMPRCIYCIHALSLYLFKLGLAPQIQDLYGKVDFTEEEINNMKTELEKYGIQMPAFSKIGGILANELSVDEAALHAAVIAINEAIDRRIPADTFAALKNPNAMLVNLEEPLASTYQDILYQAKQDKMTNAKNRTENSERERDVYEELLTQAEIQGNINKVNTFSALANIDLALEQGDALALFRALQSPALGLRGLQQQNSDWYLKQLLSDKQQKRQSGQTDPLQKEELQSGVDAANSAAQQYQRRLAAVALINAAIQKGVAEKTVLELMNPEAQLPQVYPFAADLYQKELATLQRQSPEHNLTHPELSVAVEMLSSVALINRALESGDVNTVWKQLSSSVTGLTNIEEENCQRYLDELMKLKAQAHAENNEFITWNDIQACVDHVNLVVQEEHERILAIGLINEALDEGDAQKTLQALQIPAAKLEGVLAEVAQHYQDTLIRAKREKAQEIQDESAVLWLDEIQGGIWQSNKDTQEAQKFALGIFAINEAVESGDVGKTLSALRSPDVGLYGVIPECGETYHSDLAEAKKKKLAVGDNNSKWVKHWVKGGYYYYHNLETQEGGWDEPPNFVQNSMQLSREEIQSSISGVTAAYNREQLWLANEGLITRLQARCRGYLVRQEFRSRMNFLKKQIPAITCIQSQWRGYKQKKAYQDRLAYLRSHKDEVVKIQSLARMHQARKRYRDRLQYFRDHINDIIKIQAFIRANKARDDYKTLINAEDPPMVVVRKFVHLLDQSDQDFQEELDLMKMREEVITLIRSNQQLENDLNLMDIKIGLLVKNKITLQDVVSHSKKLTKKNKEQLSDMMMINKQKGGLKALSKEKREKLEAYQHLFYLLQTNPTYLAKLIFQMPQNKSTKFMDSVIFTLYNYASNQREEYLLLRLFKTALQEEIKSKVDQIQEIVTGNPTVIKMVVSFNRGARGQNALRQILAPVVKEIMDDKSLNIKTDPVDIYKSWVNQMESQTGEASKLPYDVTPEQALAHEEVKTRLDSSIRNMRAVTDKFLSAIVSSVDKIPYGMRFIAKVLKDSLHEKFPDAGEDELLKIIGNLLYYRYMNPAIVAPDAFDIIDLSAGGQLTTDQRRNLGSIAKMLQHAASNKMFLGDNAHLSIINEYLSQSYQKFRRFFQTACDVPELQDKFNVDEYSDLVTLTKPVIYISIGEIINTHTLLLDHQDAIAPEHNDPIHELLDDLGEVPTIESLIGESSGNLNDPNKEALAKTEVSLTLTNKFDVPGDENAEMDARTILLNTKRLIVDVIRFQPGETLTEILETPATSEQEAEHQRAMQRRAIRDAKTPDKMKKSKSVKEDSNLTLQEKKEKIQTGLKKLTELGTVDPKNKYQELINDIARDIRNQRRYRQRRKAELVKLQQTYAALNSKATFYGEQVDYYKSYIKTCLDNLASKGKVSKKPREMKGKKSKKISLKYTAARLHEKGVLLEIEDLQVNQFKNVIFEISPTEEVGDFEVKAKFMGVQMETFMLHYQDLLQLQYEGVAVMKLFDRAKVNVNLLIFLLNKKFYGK
UniProt Q9ULT8: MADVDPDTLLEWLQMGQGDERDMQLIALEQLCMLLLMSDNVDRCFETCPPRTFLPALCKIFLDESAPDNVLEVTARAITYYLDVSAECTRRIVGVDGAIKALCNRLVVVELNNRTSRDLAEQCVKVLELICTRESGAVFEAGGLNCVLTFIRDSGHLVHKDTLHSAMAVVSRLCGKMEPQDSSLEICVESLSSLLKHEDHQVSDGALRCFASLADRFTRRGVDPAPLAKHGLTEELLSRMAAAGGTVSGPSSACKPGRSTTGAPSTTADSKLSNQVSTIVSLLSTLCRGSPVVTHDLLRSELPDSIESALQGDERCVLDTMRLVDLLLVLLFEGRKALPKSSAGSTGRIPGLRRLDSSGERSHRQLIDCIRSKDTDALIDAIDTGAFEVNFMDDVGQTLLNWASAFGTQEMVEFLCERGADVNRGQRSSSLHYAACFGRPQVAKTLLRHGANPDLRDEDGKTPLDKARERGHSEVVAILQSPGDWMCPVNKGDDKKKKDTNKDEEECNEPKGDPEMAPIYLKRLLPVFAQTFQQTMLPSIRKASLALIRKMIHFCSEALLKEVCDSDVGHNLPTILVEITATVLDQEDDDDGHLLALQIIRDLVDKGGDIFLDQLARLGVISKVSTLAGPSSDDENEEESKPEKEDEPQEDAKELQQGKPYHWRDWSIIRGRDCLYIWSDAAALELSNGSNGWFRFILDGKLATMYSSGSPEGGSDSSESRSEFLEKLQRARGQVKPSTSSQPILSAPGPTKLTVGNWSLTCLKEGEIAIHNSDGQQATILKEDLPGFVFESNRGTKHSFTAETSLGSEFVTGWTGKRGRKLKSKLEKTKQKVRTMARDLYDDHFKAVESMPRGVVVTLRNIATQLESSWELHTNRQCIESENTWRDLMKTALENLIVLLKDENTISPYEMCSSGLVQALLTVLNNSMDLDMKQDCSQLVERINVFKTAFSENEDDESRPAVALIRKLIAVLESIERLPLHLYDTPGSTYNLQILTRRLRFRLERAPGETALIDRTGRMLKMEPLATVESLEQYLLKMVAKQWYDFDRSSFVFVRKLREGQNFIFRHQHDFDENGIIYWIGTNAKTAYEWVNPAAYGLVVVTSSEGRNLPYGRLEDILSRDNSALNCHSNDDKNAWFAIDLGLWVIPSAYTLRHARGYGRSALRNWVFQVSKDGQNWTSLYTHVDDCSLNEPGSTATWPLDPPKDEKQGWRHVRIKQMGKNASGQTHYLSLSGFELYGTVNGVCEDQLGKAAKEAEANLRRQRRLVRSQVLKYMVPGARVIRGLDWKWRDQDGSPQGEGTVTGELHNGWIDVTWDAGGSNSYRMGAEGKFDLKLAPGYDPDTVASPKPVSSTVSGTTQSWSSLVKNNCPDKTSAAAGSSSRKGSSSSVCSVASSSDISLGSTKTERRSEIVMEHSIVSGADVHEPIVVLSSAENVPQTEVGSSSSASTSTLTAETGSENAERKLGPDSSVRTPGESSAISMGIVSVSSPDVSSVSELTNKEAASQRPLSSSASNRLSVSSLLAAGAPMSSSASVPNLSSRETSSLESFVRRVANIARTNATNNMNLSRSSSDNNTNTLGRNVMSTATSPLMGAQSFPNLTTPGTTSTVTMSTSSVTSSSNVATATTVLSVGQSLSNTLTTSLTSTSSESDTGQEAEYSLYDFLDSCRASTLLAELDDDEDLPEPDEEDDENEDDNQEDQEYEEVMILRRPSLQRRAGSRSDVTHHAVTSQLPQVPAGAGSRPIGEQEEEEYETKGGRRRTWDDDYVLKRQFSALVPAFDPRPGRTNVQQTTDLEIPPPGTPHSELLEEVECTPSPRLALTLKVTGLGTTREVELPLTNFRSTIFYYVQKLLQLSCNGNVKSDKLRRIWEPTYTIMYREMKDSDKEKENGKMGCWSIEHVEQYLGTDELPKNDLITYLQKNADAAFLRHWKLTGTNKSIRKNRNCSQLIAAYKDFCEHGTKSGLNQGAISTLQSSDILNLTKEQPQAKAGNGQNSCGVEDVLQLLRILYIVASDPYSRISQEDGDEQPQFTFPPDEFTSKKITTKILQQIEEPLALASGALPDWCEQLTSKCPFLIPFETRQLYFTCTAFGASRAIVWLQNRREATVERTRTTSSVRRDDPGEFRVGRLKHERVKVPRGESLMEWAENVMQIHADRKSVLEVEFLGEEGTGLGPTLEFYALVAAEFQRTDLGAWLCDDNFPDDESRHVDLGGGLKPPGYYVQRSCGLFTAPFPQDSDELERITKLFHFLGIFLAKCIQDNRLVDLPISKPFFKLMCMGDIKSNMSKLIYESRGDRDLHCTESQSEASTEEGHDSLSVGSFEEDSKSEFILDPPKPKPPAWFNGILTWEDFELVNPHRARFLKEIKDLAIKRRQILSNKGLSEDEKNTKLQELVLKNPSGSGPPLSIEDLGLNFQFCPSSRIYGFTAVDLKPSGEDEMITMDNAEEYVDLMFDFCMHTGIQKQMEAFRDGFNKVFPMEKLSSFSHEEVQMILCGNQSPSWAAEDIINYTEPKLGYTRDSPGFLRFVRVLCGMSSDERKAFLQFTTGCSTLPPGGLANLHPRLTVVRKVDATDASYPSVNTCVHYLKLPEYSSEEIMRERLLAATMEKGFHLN

These are yes or no findings as the source states them, for the method shown. In cells and extracts the contact can be indirect. Some results given as binding are weak or reduced against the parent protein; the word gives no strength.

In the case of “HECTD1 (E3 ubiquitin ligase for inhibin B receptor) (from UniProt Q9ULT8 1-2610) (enzyme)”, the binding result is given as “binds”.

Values taken from paper PMC5225595.
